# From patent US5008401A, “Cyanine compounds” (Asahi Chemical Co., Ltd., priority 1990, dated 1991)
# Columns and labels:
# [1] = Test for optimum recording power of recording medium formed using the dye; details: 780 nm, linear velocity 1.2 m/s, 450 kHz, CN ratio at least 45 dB, error rate up to 50 cps
# Protocol: Information was recorded on a photosensitive recording medium formed using each of the cyanine dyes shown below in Table 1 by irradiation of semiconductor laser beams at 780 nm at a recording power of 0.2 mW, a liner velocity of 1.2 m/s and a frequency of 450 kHz and the recorded information was reproduced at a reproducing power of 0.2 mW. The optimum recording power is one at which errors occur at the lowest frequency (CN ratio of at least 45 dB and error rate of up to 50 cps) when the recording is reproduced at varying recording powers of from 2.0 to 8.0 mW and the recorded information was reproduced by irradiation of semiconductor laser beams at 780 nm at a reproducing power of 0.2 mW.
# [2] = Test for reflectivity and absorptivity of dye coating at 780 nm; type: physicochemical; details: coating 600 to 700 Å on acrylic resin plate, semiconductor laser beam at 780 nm
# Protocol: Each of cyanine dyes as shown below in Table 1 was dissolved in dichloromethane to a concentration of 20 g/l. The solution was applied to an acrylic resin plate by a spin coater rotated at 1500 rpm to form a layer of 600 to 700 Å thickness, and the coating was dried. The reflectivity and absorptivity of the coating were measured by irradiation of semiconductor laser beam at 780 nm over the coating surface.
structure (smiles),measurement,setting,value
"CCOc1ccc2c(c1)C(C)(C)C(=CC=CC=CC1=[N+](C)c3ccc(OCC)cc3C1(C)C)N2C [Compound B, reference compound]",Optimum recording power,[1],at least 6.0 mW
same,Absorptivity,[2],7%
same,Reflectivity,[2],40%
"CCOc1ccc2c(c1)C(C)(C)C(=CC=CC=CC=CC1=[N+](C)c3ccc(OCC)cc3C1(C)C)N2C [Compound A, reference compound]",Optimum recording power,[1],3.6 mW
same,Absorptivity,[2],58%
same,Reflectivity,[2],24%
CCCN1C(=CC=CC=CC2=[N+](CCC)c3cc(C)c(OC)cc3C2(C)C)C(C)(C)c2cc(OC)c(C)cc21 [Preparation Example 6],Optimum recording power,[1],3.0 mW
same,Absorptivity,[2],13%
same,Reflectivity,[2],40%
CCCCN1C(=CC=CC=CC2=[N+](CCCC)c3cc(OC)c(OC)cc3C2(C)C)C(C)(C)c2cc(OC)c(OC)cc21 [Preparation Example 12],Optimum recording power,[1]; listed as Dye of Prep. Ex. 12,2.6 mW
same,Absorptivity,[2]; listed as Dye of Prep. Ex. 12,19%
same,Reflectivity,[2]; listed as Dye of Prep. Ex. 12,41%
COCCN1C(=CC=CC=CC2=[N+](CCOC)c3c(OC)cc(OC)cc3C2(C)C)C(C)(C)c2cc(OC)cc(OC)c21 [Preparation Example 14],Optimum recording power,[1],2.6 mW
same,Absorptivity,[2],18%
same,Reflectivity,[2],41%
CCN1C(=CC=CC=CC2=[N+](CC)c3c(OC)cc(OC)cc3C2(C)C)C(C)(C)c2cc(OC)cc(OC)c21 [Preparation Example 1],Optimum recording power,[1],2.7 mW
same,Absorptivity,[2],19%
same,Reflectivity,[2],42%
COCN1C(=CC=CC=CC2=[N+](COC)c3cc(OC)c(OC)cc3C2(C)C)C(C)(C)c2cc(OC)c(OC)cc21 [Preparation Example 3],Optimum recording power,[1],2.8 mW
same,Absorptivity,[2],18%
same,Reflectivity,[2],41%
CCCCN1C(=CC=CC=CC2=[N+](CCCC)c3cc(OC)c(OC)cc3C2(C)C)C(C)(C)c2cc(OC)c(OC)cc21 [Preparation Example 11],Optimum recording power,[1]; listed as Dye of Prep. Ex. 11,2.8 mW
same,Absorptivity,[2]; listed as Dye of Prep. Ex. 11,18%
same,Reflectivity,[2]; listed as Dye of Prep. Ex. 11,40%
